The target in this series is human serum albumin (HSA) (Homo sapiens) (UniProt P02768). The experiment in a line: SPR. The settings on record: 2'-OMe at C1,G2,G3,G4,U37,G38,C39,C40, 3' idT, 5' linker (NH2 and SH) carrying both HC (hydroxycoumarin maleimide) and DA (dodecanedioic acid), protein amine-coupled on CM5 chip (immobilization at 25 C), aptamers in 1x PBS, multi-cycle kinetics, 1:1 fit, single-stranded DNA.

A negative result means that nothing was seen under these conditions. The exact form of at least one protein or probe is not confirmed.

The sequence “CGGGGTGTGGGTTCGTCGTTAGCTTGATTTGGCAGCUGCC [Apc001OC]” came in with a Kd (pre-saturated with blocking peptide A) of 27.8 nM, a Kd (pre-saturated with blocking peptide B) of 23.5 nM and a Kd (pre-saturated with blocking peptide D) of 12.6 nM. Further, where the note is “pre-saturated with blocking peptide C”, the binding result is reported as “no binding”.

Source of the values: paper PMC10709176.
